Source: publication PMC4931243
Results are given in words; binding and its absence hold for the method and conditions named. Where a sequence is shown, tags or fusion partners need not be part of it.

T1: MapZ_(extra2), C-terminal subdomain of the extracellular domain of MapZ (residues 355-464), His tag cleaved (Streptococcus pneumoniae R800) (UniProt Q8DR55)
T1 sequence: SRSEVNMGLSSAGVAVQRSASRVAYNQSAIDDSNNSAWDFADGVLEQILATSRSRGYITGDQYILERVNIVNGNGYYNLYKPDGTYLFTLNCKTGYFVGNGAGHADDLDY

T2: His7-MapZ_(extra1), 13C,15N-labelled N-terminal subdomain of the extracellular domain of MapZ (residues 182-313), tag not cleaved (Streptococcus pneumoniae R800) (UniProt Q8DR55)
T2 sequence: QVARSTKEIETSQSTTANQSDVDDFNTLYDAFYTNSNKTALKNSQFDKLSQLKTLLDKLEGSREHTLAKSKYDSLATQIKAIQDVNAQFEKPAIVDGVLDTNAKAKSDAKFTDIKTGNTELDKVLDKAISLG

B1: MapZ_(extra1), N-terminal subdomain of the extracellular domain of MapZ (residues 182-313), His tag cleaved (domain or fragment, UniProt Q8DR55 182-313)
chain: T2 sequence
B2: His7-MapZ_(extra2), 13C,15N-labelled C-terminal subdomain of the extracellular domain of MapZ (residues 355-464), tag not cleaved (domain or fragment, UniProt Q8DR55 355-464)
chain: T1 sequence

Tests used:
[1] = target: T1, MapZ_(extra2), C-terminal subdomain of the extracellular domain of MapZ (residues 355-464), His tag cleaved (Streptococcus pneumoniae R800); assay: condition: 0.5 μM MapZextra1 (highest concentration injected); SPR; BIAcore T100; MapZextra2 covalently coupled to a CM5 sensorchip, MapZextra1 injected at 0.01-0.5 μM, 30 μl/min, 10 mM HEPES pH 7.4, 150 mM NaCl, 0.005% surfactant P20; both purified
[2] = target: T2, His7-MapZ_(extra1), 13C,15N-labelled N-terminal subdomain of the extracellular domain of MapZ (residues 182-313), tag not cleaved (Streptococcus pneumoniae R800); assay: condition: 100 μM MapZextra1 with two molar equivalents of MapZextra2; NMR titration; 2D [1H,15N]-BEST-TROSY of 100 μM 13C,15N-MapZextra1 before and after addition of two molar equivalents of 13C,15N-MapZextra2; 50 mM Tris, 100 mM NaCl, 10% D2O, pH 7.5, 298 K; both purified

| binding [1] | binding [2] | Binder |
| --- | --- | --- |
| no binding |  | B1 |
|  | no binding | B2 |
